Assay [1] has as its target TERT (telomerase reverse transcriptase, telomerase catalytic subunit) (human) (UniProt O14746). Nature of the assay: co-expression in cultured cells, immunoprecipitation with anti-TERT, Western blot with anti-FLAG (FIG. 5, lane 3); covalent conjugation.
For assay [2] the target is unchanged. Nature of the assay: co-expression in HEK293T cells, RIPA lysate, immunoprecipitation with anti-TERT (L-21), Western blot with anti-FLAG; covalent conjugation.
The target in assay [3] is N-terminal FLAG-tagged TERT (human) (UniProt O14746). Nature of the assay: co-expression in HEK293T cells, immunoprecipitation with anti-HA agarose, Western blot with anti-FLAG.
For assay [4] the target is unchanged. Nature of the assay: co-expression in cultured cells, immunoprecipitation with anti-HA, Western blot with anti-FLAG (FIG. 4).
Assay [5] has the same target. Nature of the assay: co-expression in HEK293T cells, immunoprecipitation with anti-HA agarose, Western blot with anti-FLAG; signal taken to be covalent NEDD8 conjugate.

By UniProt entry, the sequences of proteins in these tests, tags left out. Where a name states a change or a piece, a line headed by the entry shows the natural chain unless it says otherwise.
UniProt O14746: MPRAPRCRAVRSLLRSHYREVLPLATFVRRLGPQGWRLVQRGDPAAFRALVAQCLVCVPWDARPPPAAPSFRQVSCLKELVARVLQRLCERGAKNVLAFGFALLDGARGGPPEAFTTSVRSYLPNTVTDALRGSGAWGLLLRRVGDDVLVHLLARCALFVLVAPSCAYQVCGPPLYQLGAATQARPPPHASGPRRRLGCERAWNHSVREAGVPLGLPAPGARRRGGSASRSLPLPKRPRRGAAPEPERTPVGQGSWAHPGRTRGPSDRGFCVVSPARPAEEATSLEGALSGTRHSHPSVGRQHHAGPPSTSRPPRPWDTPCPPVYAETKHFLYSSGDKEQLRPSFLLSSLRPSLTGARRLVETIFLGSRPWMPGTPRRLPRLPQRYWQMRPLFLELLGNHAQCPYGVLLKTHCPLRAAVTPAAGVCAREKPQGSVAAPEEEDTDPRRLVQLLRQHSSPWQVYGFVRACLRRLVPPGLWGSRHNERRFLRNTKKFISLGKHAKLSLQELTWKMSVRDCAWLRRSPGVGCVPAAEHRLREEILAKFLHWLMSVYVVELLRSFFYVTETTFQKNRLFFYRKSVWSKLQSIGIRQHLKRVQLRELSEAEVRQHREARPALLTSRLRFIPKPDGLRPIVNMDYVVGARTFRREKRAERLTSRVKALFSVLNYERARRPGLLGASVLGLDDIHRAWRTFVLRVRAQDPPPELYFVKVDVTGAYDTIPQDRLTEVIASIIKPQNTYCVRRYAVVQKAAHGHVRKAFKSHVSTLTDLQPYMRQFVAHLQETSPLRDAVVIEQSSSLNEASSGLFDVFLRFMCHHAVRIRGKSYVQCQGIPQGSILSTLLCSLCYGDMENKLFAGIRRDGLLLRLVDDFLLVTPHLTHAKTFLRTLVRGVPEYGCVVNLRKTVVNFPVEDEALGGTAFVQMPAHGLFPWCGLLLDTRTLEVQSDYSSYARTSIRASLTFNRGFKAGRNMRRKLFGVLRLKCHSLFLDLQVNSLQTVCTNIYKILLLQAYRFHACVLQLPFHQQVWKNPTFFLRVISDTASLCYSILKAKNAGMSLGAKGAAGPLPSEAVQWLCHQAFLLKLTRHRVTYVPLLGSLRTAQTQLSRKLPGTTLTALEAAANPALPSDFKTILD
UniProt Q15843: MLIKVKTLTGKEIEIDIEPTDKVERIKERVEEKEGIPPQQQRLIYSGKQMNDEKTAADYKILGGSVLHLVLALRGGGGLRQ

No constants are given. Whether binding was seen depends on the method and setting. Some results given as binding are weak or reduced against the parent protein; the word gives no strength.

For “N-terminal FLAG-tagged NEDD8 (from UniProt Q15843 1-76)”, the binding entry in assay [1] and in assay [2] was “binds” in each case.
As for “N-terminal HA-tagged NEDD8 (from UniProt Q15843 1-76)”, the binding entry in assay [3], in assay [4] and in assay [5] was “binds” in each case.

Values taken from patent publication US20080004355A1, “Method for Inhibiting Telomerase Activity and an Agent for Inhibiting the Same” (priority 2004, published 2008).
